Values from PubChem BioAssay AID504791 (Drosophila RNAi Screening Center, 2011).

Screen: 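Genes of the fly required for silencing by miRNA, siRNA or endo-siRNA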 (primary screen)
Cell system: Drosophila S2-derived reporter cells
Reagent: long dsRNA against Drosophila genes, about 150-250 ng dsRNA per well (siRNA assay); about 80-120 ng (miRNA assay)
Time to read-out: about 5 days (siRNA assay); about 4 days (miRNA assay)
Treatment: copper sulfate induction of reporters: 25 µM (siRNA assay); 200 mM stated (miRNA assay), 1-2 days before reading
Measured: 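Per-well ratio of Renilla over firefly light, expressed relative to that plate's average ratio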
Rule for the call: 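a well was a first-pass pick when its plate-scaled ratio rose above 1.5 (siRNA assay) or 1.6 (miRNA assay), or dropped below 0.6; a gene counted only if two separate dsRNAs agreed on retest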
The deposit covers about 23,000 reagents; shown is an unselected part of those that have a named target and a result. Over the whole deposit, 199 (0.86%) were called active. 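Plate-scaled ratios behind the calls are not deposited; printed light signals are raw; many rows marked increased or decreased are still called inactive.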 A plus sign joins genes that one reagent is predicted to hit. Not stated in the record: the direction of the score.

The opening 9 entries as a preview:
predicted target	dsRNA	stable siRNA reporter change	miRNA reporter change	stable assay Renilla, run 1 (luminescence)	stable assay firefly, run 1 (luminescence)	activity call
elg1	DRSC10229			9626	3.82e5	inactive
CG31467	DRSC16048			6767	3.55e5	inactive
CG33128	DRSC00294			5643	6.17e5	inactive
CG16700	DRSC19755			2908	2.41e5	inactive
Spn75F	DRSC09589			5947	3.47e5	inactive
CG14634	DRSC17944			6676	4.77e5	inactive
Ance	DRSC01865			14280	9.66e5	inactive
CG32195	DRSC09533			6211	3.35e5	inactive
CG1607	DRSC15130			8347	4.91e5	inactive

Main list, repeating the preview:
predicted target	dsRNA	stable siRNA reporter change	miRNA reporter change	stable assay Renilla, run 1 (luminescence)	stable assay firefly, run 1 (luminescence)	activity call
elg1	DRSC10229			9626	3.82e5	inactive
CG31467	DRSC16048			6767	3.55e5	inactive
CG33128	DRSC00294			5643	6.17e5	inactive
CG16700	DRSC19755			2908	2.41e5	inactive
Spn75F	DRSC09589			5947	3.47e5	inactive
CG14634	DRSC17944			6676	4.77e5	inactive
Ance	DRSC01865			14280	9.66e5	inactive
CG32195	DRSC09533			6211	3.35e5	inactive
CG1607	DRSC15130			8347	4.91e5	inactive
E(spl)malpha-BFM	DRSC16994			5847	2.81e5	inactive
CG43367	DRSC08299			6456	4.47e5	inactive
CG43367	DRSC08301			6054	2.93e5	inactive
CG43367	DRSC08309			6031	3.58e5	inactive
CG7530	DRSC16255			3615	3.72e5	inactive
plx	DRSC12260			6995	3.31e5	inactive
plx	DRSC12385		reporter ratio raised past the hit cutoff	3123	2.98e5	inactive
plx	DRSC22683			3187	3.38e5	inactive
Mvl	DRSC16752			6956	2.83e5	inactive
crc	DRSC03513			6882	2.72e5	inactive
Uba5	DRSC19775			5068	4.41e5	inactive
CG10286	DRSC12520			10139	5.10e5	inactive
Bet1	DRSC10088			6267	3.47e5	inactive
Nuak	DRSC14414			6704	4.28e5	inactive
Nuak	DRSC14415			7300	2.77e5	inactive
Nuak	DRSC14416			6740	4.80e5	inactive
Osi19	DRSC12569			6882	4.98e5	inactive
CG13024	DRSC09904			7379	2.93e5	inactive
Lgr1	DRSC16675			7384	4.55e5	inactive
Thor	DRSC00770			14301	2.84e5	inactive
Cyp305a1	DRSC11126			7651	3.44e5	inactive
Tnpo	DRSC11309			8178	4.61e5	inactive
CG9630	DRSC16527			7135	3.70e5	inactive
CG6683	DRSC10694			7577	3.77e5	inactive
phol	DRSC10367			7515	3.51e5	inactive
MFS15	DRSC06523			7590	4.33e5	inactive
CG17377	DRSC00950			4108	4.31e5	inactive
CG17377	DRSC02615			9992	4.16e5	inactive
CG17377	DRSC21811			8447	4.59e5	inactive
BG642163	DRSC00342			6690	3.31e5	inactive
BG642163	DRSC00343			6542	3.22e5	inactive
S2P	DRSC07311			5007	2.60e5	inactive
Sb	DRSC16851			8546	4.74e5	inactive
Cyp311a1	DRSC20239			4335	3.15e5	inactive
CG1077	DRSC12146			5311	6.12e5	inactive
CG14740	DRSC14960			10007	4.73e5	inactive
Aos1	DRSC14113	reporter ratio lowered past the hit cutoff		5104	5.30e5	inactive
CG30196	DRSC04156			6219	3.33e5	inactive
CG32176	DRSC10057			7322	5.50e5	inactive
CG32176	DRSC10058			8678	3.86e5	inactive
vig2	DRSC14402			8350	3.72e5	inactive
Idi	DRSC15918			8964	3.48e5	inactive
bbx + waw	DRSC20575			7440	4.24e5	inactive
bbx + waw	DRSC20589			6243	4.19e5	inactive
lambdaTry	DRSC06137			6331	2.92e5	inactive
Sulf1	DRSC16874			11120	5.26e5	inactive
Or33b	DRSC03387			4559	2.51e5	inactive
CG15576	DRSC18064			4231	3.08e5	inactive
CG9338	DRSC03213			1.07e5	2.64e5	inactive
lush	DRSC11364			7710	4.58e5	inactive
E(spl)m2-BFM	DRSC16991	reporter ratio raised past the hit cutoff		5175	1.61e5	inactive
E(spl)m2-BFM	DRSC23082			4356	3.40e5	inactive
Ube4B	DRSC03277			80852	3.59e5	inactive
CG5265	DRSC15756			6742	3.16e5	inactive
pnr	DRSC17027			8011	4.11e5	inactive
CG14826	DRSC10197			6010	4.92e5	inactive
Sbf	DRSC16852	reporter ratio raised past the hit cutoff		8076	2.50e5	active
Cow	DRSC13601			5559	6.16e5	inactive
Cow	DRSC14680			6842	3.19e5	inactive
CG13280	DRSC02253			6871	2.98e5	inactive
Sap30	DRSC19916			4727	3.62e5	inactive
Moe	DRSC18684			7887	4.70e5	inactive
Mekk1	DRSC16302			6535	3.24e5	inactive
Mekk1	DRSC16303		reporter ratio lowered past the hit cutoff	6936	4.42e5	inactive
Spt3	DRSC15465			7415	4.25e5	inactive
CG11608	DRSC14334			6403	3.83e5	inactive
CG10587	DRSC11627			7412	3.83e5	inactive
CG32299 + CG32298	DRSC07980			5847	3.92e5	inactive
CG32299 + CG32298	DRSC22354			8182	5.57e5	inactive
CG12438	DRSC02167			7890	5.00e5	inactive
levy	DRSC04289			5159	4.86e5	inactive
Obp8a	DRSC17868			4932	3.66e5	inactive
Idgf5	DRSC06919			8894	3.00e5	inactive
CG15471	DRSC18054			5594	3.43e5	inactive
